From publication PMC11079228
No constants are given. Whether binding was seen depends on the method and setting. Binding seen in cells or lysates may run through a third protein. A yes stands for co-enrichment or nearness to the bait. Other partners may have been found. Each block holds one binder with its values, some of them ahead of it.

Molecular target: Huntingtin-interacting protein 1 (rat) (rat (endogenous in rat FLS))
Assay: affinity purification with mass spectrometry; rabbit anti-rat-HIP1 antibody (20 μg per sample) on Dynabeads M-270 Epoxy; total lysates of rat FLS (one DA and one R6 cell line, each in triplicate), starved 24 h, then PDGFβ 100 ng/mL 30 min; lysis in water with protease and phosphatase inhibitors by three freeze-thaw cycles; elution with 8 M urea, LysC and trypsin, nano-LC-MS/MS, label-free quantitation

- binding: binds
B1: PSMD10 (protein, UniProt Q9Z2X3 1-231)
chain: MEGCVSNLMVCNLAYNGKLDELKESILADKSLATRTDQDSRTALHWACSAGHTEIVEFLLQLGVPVNEKDDAGWSPLHIAASAGRDEIVKALLIKGAQVNAVNQNGCTALHYAASKNRHEIAVMLLEGGANPDAKNHYDATAMHRAAAKGNLKMVHILLFYKASTNIQDTEGNTPLHLACDEERVEEAKLLVTQGASIYIENKEEKTPLQVAKGGLGLILKRIAESEEASM

- binding: binds
B2: CLTA (protein, UniProt P08081 1-248)
chain: MAELDPFGAPAGAPGGPALGNGVAGAGEEDPAAAFLAQQESEIAGIENDEAFAILDGGAPGPQAHGEPPGGPDAVDGVMNGEYYQESNGPTDSYAAISEVDRLQSEPESIRKWREEQTERLEALDANSRKQEAEWKEKAVKELEEWYARQDEQLQKTKASNRVADEAFYKQPFADVIGYVTNINHPCYSLEQAAEEAFVNDIDESSPGTEWERVARLCDFNPKSSKQAKDVSRMRSVLISLKQAPLVH

- binding: binds
B3: PSMC2 (protein, UniProt Q63347 1-433)
chain: MPDYLGADQRKTKEDEKDDKPIRALDEGDIALLKTYGQSTYSRQIKQVEDDIQQLLKKINELTGIKESDTGLAPPALWDLAADKQTLQSEQPLQVARCTKIINADSEDPKYIINVKQFAKFVVDLSDQVAPTDIEEGMRVGVDRNKYQIHIPLPPKIDPTVTMMQVEEKPDVTYSDVGGCKEQIEKLREVVETPLLHPERFVNLGIEPPKGVLLFGPPGTGKTLCARAVANRTDACFIPVIGSELVQKYVGEGARMVRELFEMARTKKACLIFFDEIDAIGGARFDDGAGGDNEVQRTMLELINQLDGFDPRGNIKVLMATNRPDTLDPALMRPGRLDRKIEFSLPDLEGRTHIFKIHARSMSVERDIRFELLARLCPNSTGAEIRSVCTEAGMFAIRARRKIATEKDFLEAVNKVIKSYAKFSATPRYMTYN

- binding: binds
B4: DSTN (protein, UniProt Q7M0E3 1-165)
chain: MASGVQVADEVCRIFYDMKVRKCSTPEEIKKRKKAVIFCLSADKKCIVVEEGKEILVGDVGVTITDPFKHFVGMLPEKDCRYALYDASFETKESRKEELMFFLWAPEQAPLKSKMIYASSKDAIKKKFPGIKHEYQANGPEDLNRTSIAEKLGGSLIVAFEGSPV

- binding: binds
B5: MCM3 (protein, UniProt D3ZFP4 1-813)
chain: MAGTVVLDDVELREAQRDYLDFLDDEEDQGIYQNKVRELISDNQYRLIVNVNDLRRKNEKRANRLLNNAFEELVAFQRALKDFVASIDATYAKQYEEFYIGLEGSFGSKHVSPRTLTSCFLSCVVCVEGIVTKCSLVRPKVVRSVHYCPATKKTIERRYSDLTTLVAFPSSSVYPTKDEENNPLETEYGLSVYKDHQTITIQEMPEKAPAGQLPRSVDVILDDDLVDKVKPGDRIQVVGTYRCLPGKKGGYTSGTFRTVLIACNVKQMSKDIQPAFSADDIAKIKKFSKTRSKDVFEQLARSLAPSIHGHDYVKKAILCLLLGGVERELENGSHIRGDINILLIGDPSVAKSQLLRYVLCTAPRAIPTTGRGSSGVGLTAAVTTDQETGERRLEAGAMVLADRGVVCIDEFDKMSDMDRTAIHEVMEQGRVTIAKAGIHARLNARCSVLAAANPVYGRYDQYKTPMENIGLQDSLLSRFDLLFIMLDQMDPEQDREISDHVLRMHQYRAPGEQDGDALPLGSSVDILATDDPDFTQDDQQDTRIYEKHDNLLHGSKKKREKMVSAAFMKKYIHVAKIIKPTLTQESAAYIAEEYSRLRSQDSMSSDTARTSPVTARTLETLIRLATAHAKARMSKTVDLQDAEEAVELVQYAYFKKVLEKEKKRKKPSEDESDLEDEEEKSQEEDTEQTRKRRKTQAKDGESYDPYDFSEAEREMPQVHTPKTDDSQEKTDESQETQESQKVELSESRLKAFKAALLEVFQEAHAQSVGMIHLTESINRNKEEPFSSEEIQASLSRMQDDNQVMVSEGIVFLI

- binding: binds
B6: ADRM1 (protein, UniProt Q9JMB5 1-407)
chain: MTTSGALFPSLVPGSRGSSTKYLVEFRAGKMSLKGTTVTPDKRKGLVYIQQTDDSLIHFCWKDRTSGTVEDDLIIFPDDCEFKRVPQCPSGRVYVLKFKAGSKRLFFWMQEPKTDQDEEHCRKVNECLNNPPMPGTLGASGSSGHELSALGGEGGLQSLLGNMSHSQLMQLIGPAGLGGLGGLGALTGPGLASLLGSSGPPASSSSSSSRSQSAAVTPSSTTSSARATPAPSAPAAASATSPSPAPSSGNGTSTAASPTQPIQLSDLQSILATMNVPAGPGGSQQVDLASVLTPEIMAPILANADVQERLLPYLPSGESLPQTAEEIQNTLTSPQFQQALGMFSAALASGQLGPLMCQFGLPAEAVEAANKGDVEAFAKAMQNNAKSDPKEGDTKDKKDEEEDMSLD

- binding: binds
B7: PSMD13 (protein, UniProt B0BN93 1-376)
chain: MKDVPAFLQQSQSSGPGQAAVWHRLEELYTKKLWHQLTLQVLDFVQDPCFAQGDGLIKLYENFISEFEHRVNPLSLVEIILHVVRQMTDPNVALTFLEKTREKVKSSDEAVILCKTAIGALKLNIGDLQATKETIEDVEEMLNNLPGVTSVHSRFYDLSSKYYQTIGNHASYYKDALRFLGCVDIKDLPVSEQQERAFTLGLAGLLGEGVFNFGELLMHPVLESLRNTDRQWLIDTLYAFNSGDVDRFQTLKSAWGQQPDLAANEAQLLRKIQLLCLMEMTFTRPANHRQLTFEEIAKSAKITVNKVELLVMKALSVGLVRGSIDEVDKRVHMTWVQPRVLDLQQIKGMKDRLELWCTDVKSMELLVEHQAQDILT

- binding: binds
B8: CAND1 (protein, UniProt P97536 1-1230)
chain: MASASYHISNLLEKMTSSDKDFRFMATNDLMTELQKDSIKLDDDSERKVVKMILKLLEDKNGEVQNLAVKCLGPLVSKVKEYQVETIVDTLCTNMLSDKEQLRDISSIGLKTVIGELPPASSGSALAANVCKKITGRLTSAIAKQEDVSVQLEALDIMADMLSRQGGLLVNFHPSILTCLLPQLTSPRLAVRKRTIIALGHLVMSCGNIVFVDLIEHLLSELSKNDSMSTTRTYIQCIAAISRQAGHRIGEYLEKIIPLVVKFCNVDDDELREYCIQAFESFVRRCPKEVYPHVSTIINICLKYLTYDPNYNYDDEDEDENAMDADGGDDDDQGSDDEYSDDDDMSWKVRRAAAKCLDAVVSTRHEMLPEFYKTVSPALISRFKEREENVKADVFHAYLSLLKQTRPVQSWLCDPDAMEQGETPLTMLQSQVPNIVKALHKQMKEKSVKTRQCCFNMLTELVNVLPGALTQHIPVLVPGIIFSLNDKSSSSNLKIDALSCLYVILCNHSPQVFHPHVQALVPPVVACVGDPFYKITSEALLVTQQLVKVIRPLDQPSSFDATPYIKDLFTCTIKRLKAADIDQEVKERAISCMGQIICNLGDNLGPDLSNTLQIFLERLKNEITRLTTVKALTLIAGSPLKIDLRPVLGEGVPILASFLRKNQRALKLGTLSALDILIKNYSDSLTAAMIDAVLDELPPLISESDMHVSQMAISFLTTLAKVYPSSLSKISGSILNELIGLVRSPLLQGGALSAMLDFFQALVVTGTNNLGYMDLLRMLTGPVYSQSTALTHKQSYYSIAKCVAALTRACPKEGPAVVGQFIQDVKNSRSTDSIRLLALLSLGEVGHHIDLSGQLELKSVILEAFSSPSEEVKSAASYALGSISVGNLPEYLPFVLQEITSQPKRQYLLLHSLKEIISSASVVGLKPYVENIWALLLKHCECAEEGTRNVVAECLGKLTLIDPETLLPRLKGYLISGSSYARSSVVTAVKFTISDHPQPIDPLLKNCIGDFLKTLEDPDLNVRRVALVTFNSAAHNKPSLIRDLLDSVLPHLYNETKVRKELIREVEMGPFKHTVDDGLDIRKAAFECMYTLLDSCLDRLDIFEFLNHVEDGLKDHYDIKMLTFLMLVRLSTLCPSAVLQRLDRLVEPLRATCTTKVKANSVKQEFEKQDELKRSAMRAVAALLTIPEAEKSPLMSEFQSQISSNPELAAIFESIQKDSSSTNLESMDTS

- binding: binds
B9: PICALM (protein, UniProt O55012 1-640)
chain: MSGQSLTDRITAAQHSVTGSAVSKTVCKATTHEIMGPKKKHLDYLIQCTNEMNVNIPQLADSLFERTTNSSWVVVFKSLITTHHLMVYGNERFIQYLASRNTLFNLSNFLDKSGLQGYDMSTFIRRYSRYLNEKAVSYRQVAFDFTKVKRGADGVMRTMNTEKLLKTVPIIQNQMDALLDFNVNSNELTNGVINAAFMLLFKDAIRLFAAYNEGIINLLEKYFDMKKNQCKEGLDIYKKFLTRMTRISEFLKVAEQVGIDRGDIPDLSQAPSSLLDALEQHLASLEGKKIKDSTAASRATTLSNAVSSLASTGLSLTKVDEREKQAALEEEQARLKALKEQRLKELAKKPHTSLTTAASPVSTSAGGIMTAPAIDIFSTPSSSNSTSKLPNDLLDLQQPTFHPSVHAMSAAPQVASTWGDAVDDAIPSLNPFLTKSSGDVHLPISSDVSTFTTRTPTHEMFVGFSPSPVTQPHPSAGLNVDFESVFGNKSTNVAVDSGGGLLKPTVASQNQSLPVAKLPPNKLVSDDLDSSLANLVGNLGIGNGTTKNDVSCSQPGEKKLTGGSNWQPKVAPTTAWSAATMAPPVMAYPATTPTGMIGYGIPPQMGSVPVMTQPTLIYSQPVMRPPNPFGPVPGAQIQFM

- binding: binds
B10: MCM6 (protein, UniProt Q62724 1-507)
chain: LRDEEQTAESIKNQMTVKEWEKVFEMSQDQNLYHNLCTSLFPTIHGNDEVKRGVLLMLFGGVPKTTGEGTSLRGDINVCIVGDPSTAKSQFLKHVDEFSPRAVYTSGKASSASGLTAAVVRDEESHEFVIEAGALMLADNGVCCIDEFDKMDMRDQVAIHEAMEQQTISITKAGVKATLNARTSILAAANPVSGHYDRSKSLKQNINLSAPIMSRFDLFFILVDECNEVTDYAIARRIVDLHSRIEESIDRVYSLDDIRRYLLFARQFKPKISKESEDFIVEQYKRLRQRDGSGITKSSWRITVRQLESMIRLSESMARMHCCDEVQPKHVKEAFRLLNKSIIRVETPDVNLDQEEEIQMETDEGPGGINGHADSPAPVNGFNGSGEDASQETVPKPSLRLAFAEYCRISNLIVLHLRKMEEEEDESALKRSELVNWYLKEIESEIDSEEELINKKRIIEKVVHRLTHYDHVLIELTQAGLKGSSEGSESYEEDPYLVVNPNYLLED

- binding: binds
B11: CLTB (protein, UniProt P08082 1-229)
chain: MAEDFGFFSSSESGAPEAAEEDPAAAFLAQQESEIAGIENDSGFGAPAASQVASAQPGLASGGGSEDMGTTVNGDVFQEANGPADGYAAIAQADRLTQEPESIRKWREEQKKRLQELDAASKVTEQEWREKAKKDLEEWNQRQSEQVEKNKINNRIADKAFYQQPDADTIGYVASEEAFVKESKEETPGTEWEKVAQLCDFNPKSSKQCKDVSRLRSVLMSLKQTPLSR

- binding: binds
B12: PSMD9 (protein, UniProt Q9WTV5 1-222)
chain: MSSEEVRHRAESSEARAAAVSDIQELMRRKEEIEAQIKANYDVLESQKGIGMNEPLVDCEGYPRADVDLYQVRTARHNIICLQNDHKALMKQVEEALHQLHARDKEKQARDMAEAREEAMNRRLASDSPALPKAFARVNSISPGSPASIAGLQVDDEIVEFGSVNTQNFQSLQNVGTVVQHSEGKPLNVMVIRRGEKHQLRLTPTRWAGKGLLGCNITPLQR
